The values that follow come from paper doi:10.1101/2025.03.24.645041 (2025).

Changes are numbered by the printed parent chain. No constants are given. Whether binding was seen depends on the method and setting. For some of these results: Binding seen in cells or lysates may run through a third protein. Some results given as binding are weak or reduced against the parent protein; the word gives no strength. For some of these results: Tags and fused reporters may be left off the sequences shown.

Assay [1] addresses T1, Strep II-Myo2(1150–1567) (budding yeast) (UniProt P19524).
T1 sequence: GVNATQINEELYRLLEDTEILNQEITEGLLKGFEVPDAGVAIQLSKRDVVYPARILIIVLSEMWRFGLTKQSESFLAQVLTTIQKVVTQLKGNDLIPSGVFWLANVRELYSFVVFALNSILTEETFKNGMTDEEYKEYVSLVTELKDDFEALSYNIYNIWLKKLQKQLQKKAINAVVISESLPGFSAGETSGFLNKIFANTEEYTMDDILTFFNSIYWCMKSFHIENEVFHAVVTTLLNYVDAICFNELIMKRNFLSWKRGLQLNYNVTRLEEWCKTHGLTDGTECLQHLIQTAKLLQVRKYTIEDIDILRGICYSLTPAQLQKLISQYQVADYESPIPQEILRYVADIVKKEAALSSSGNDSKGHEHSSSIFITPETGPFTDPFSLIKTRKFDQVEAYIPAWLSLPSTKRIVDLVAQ
As to the kind of experiment: cryo-EM structure; co-expressed and co-purified Vac17(H+MBD)-Myo2 tail complex (co-eluted as a single peak in gel filtration); 150 uM fluorinated octyl-maltoside; two reconstructions from one dataset (5.75 Å and 7.56 Å); both purified. (In gel filtration, larger molecules generally elute earlier.)

Assay [2] has as its target T1, Strep II-Myo2(1150–1567) (budding yeast). In words: SEC; Myo2 tail co-expressed in E. coli with MBP-fused Vac17 peptide; MBP affinity purification on amylose resin, MBP cleaved with TEV protease, then Superdex 200 Increase 10/300 GL; compared with apo Myo2 tail; both purified.
Assay [3] has the same target. In words: pull-down + SEC; Myo2 tail co-expressed with MBP-fused Vac17(H); first pulled down with amylose resin, treated with TEV protease, then pulled down with Strep-Tactin to isolate Myo2, then gel filtration; both purified.
Assay [4] addresses T2, Strep II-Myo2 tail myo2(K1408A, R1449E) double mutant (budding yeast) (UniProt P19524).
T2 sequence: T1 sequence with K259A, R300E
In words: pull-down; Strep II-Myo2 tail (wild type or mutant) co-expressed with MBP or MBP-Vac17(H) in BL21(DE3); lysate incubated with StreptactinXT 4Flow beads 1 h at 4°C; washes with 50 mM Tris-HCl pH 8.0, 400 mM NaCl, 0.1% Tween, 5 mM βME; blot.

For assay [5], the target named is T1, Strep II-Myo2(1150–1567) (budding yeast). The assay is described as above.
The target in assay [6] is T3, Strep II-Myo2 tail myo2(E1338R, K1408A, V1448A) triple mutant (budding yeast) (UniProt P19524).
T3 sequence: T1 sequence with E189R, K259A, V299A
The description is as above.

B1: Vac17(H+MBD) peptide, Vac17(1–157) (domain or fragment, UniProt P25591 1-157)
chain: MATQALEDITERLLIRSQEAILQLDLWIQRQQRSSICQTTDQESLDKLSQQYNQYMSQLNSLYVRSESVRDKLSKEQQRRLITEDNEHQRIEDLVREFQDITLRLNELATVPNEAPNDSPQSQSTRSSLGSFQPRPLKIIERQRLCMVTPSKPPKKS
For B1, in assay [1], the binding result was “binds”.

B2: Vac17(H) peptide, Vac17(1–109), MBP cleaved off (domain or fragment, UniProt P25591 1-109)
chain: MATQALEDITERLLIRSQEAILQLDLWIQRQQRSSICQTTDQESLDKLSQQYNQYMSQLNSLYVRSESVRDKLSKEQQRRLITEDNEHQRIEDLVREFQDITLRLNELA
Regarding B2, the binding entry in assay [2] and in assay [3] was “binds” in each case.

B3: MBP-Vac17(H) (domain or fragment, UniProt P25591 1-109)
chain: B2 chain
Consider B3, for which the binding result in assay [4], in assay [5] and in assay [6] was “binds” throughout.
For TVPNEAPNDSPQSQSTRSSLGSFQPRPLKIIERQRLCMVTPSKPPKKS (domain or fragment, UniProt P25591 110-157) [Vac17(MBD) peptide, Vac17(110–157), MBP cleaved off], in assay [2], the binding entry is “binds”.
